Results are given in words; binding and its absence hold for the method and conditions named. Some binding calls cover weakened binding; strength is not graded here.
How the values were obtained:
[1] = biological target: NKG2A on cynomolgus monkey NK cells (cynomolgus monkey) (UniProt Q68VD2); assay: flow cytometry on NK cells, PE-GaM
[2] = biological target: NKG2A on cynomolgus monkey NK cells (cynomolgus monkey) (UniProt Q68VD2); assay: flow cytometry, cynomolgus bulk NK cells, mAb 1 ug/ml, PE-GaM
[3] = biological target: NKG2A on rhesus monkey (Macaca mulatta) NK cells (rhesus monkey (Macaca mulatta)) (UniProt Q9MZJ3); assay: flow cytometry on NK cells
[4] = biological target: NKG2A on rhesus monkey (Macaca mulatta) NK cells (rhesus monkey (Macaca mulatta)) (UniProt Q9MZJ3); assay: flow cytometry, whole blood NK cells, PE-GaM
[5] = biological target: NKG2A on cynomolgus monkey NK cells (cynomolgus monkey) (UniProt Q68VD2); assay: flow cytometry on cynomolgus NK cells (FIG. 4)

Sequences of proteins named here, by UniProt entry; tags and fusion partners are left off. A change or cut given only in a name is not applied to a line headed by its entry. A line that says so, or that is headed by a name, gives the form on record, which may keep a tag or linker.
NKG2A on cynomolgus monkey NK cells (Q68VD2, form named): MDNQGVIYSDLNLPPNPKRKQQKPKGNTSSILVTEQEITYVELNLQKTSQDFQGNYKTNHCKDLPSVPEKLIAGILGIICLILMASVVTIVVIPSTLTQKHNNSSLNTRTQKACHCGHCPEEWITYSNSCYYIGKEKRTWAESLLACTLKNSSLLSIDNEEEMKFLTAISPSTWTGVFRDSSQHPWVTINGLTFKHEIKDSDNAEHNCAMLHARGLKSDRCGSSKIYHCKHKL
UniProt Q9MZJ3: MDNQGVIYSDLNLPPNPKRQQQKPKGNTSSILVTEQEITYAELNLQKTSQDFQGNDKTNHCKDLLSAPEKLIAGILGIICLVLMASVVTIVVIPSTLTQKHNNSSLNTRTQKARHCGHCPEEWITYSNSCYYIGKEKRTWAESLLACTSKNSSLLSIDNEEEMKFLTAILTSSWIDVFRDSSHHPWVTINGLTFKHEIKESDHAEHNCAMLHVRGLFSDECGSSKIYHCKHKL

Measured: binding

B1: Z270 anti-NKG2A monoclonal antibody (antibody, V domains shown)
VH: QVQLQQPGAELVRPGASVKLSCKASGYTFTSYWMNWVKQRPEQGLQWIGRIDPYDSETHYSQKFKDKAILTVDKSSSTAYMRLSSLTSEDSAVYYCARGGYDFDVGTLYWFFDVWGAGTTVTVS
VL: DIQMTQSPASLSASVGETVTITCRASENIYSYLAWYQQKQGKSPQFLVYNAKTLAEGVPSRFSGSGSGTQFSLKINSLQPEDFGSYYCQHHYGTPRTFGGGTKLEIK
binds: all assays above
